This note sets out measurements from paper PMC8679000, “Biochemical Characterizations of Human TMPK Mutations Identified in Patients with Severe Microcephaly: Single Amino Acid Substitutions Impair Dimerization and Abolish Their Catalytic Activity” (ACS Omega, 2021).

Changes are numbered by the printed parent chain. Names and notes keep the numbering of the source. No constants are given. Whether binding was seen depends on the method and setting.

What all share (experiment): SEC; Superdex G200; 10 mM Tris/HCl pH 7.6, 100 mM NaCl, 5 mM MgCl2, 5 mM DTT; 200 ug protein injected, 0.4 mL/min; 0.4 mL fractions analysed by TMPK activity and Western blot; size markers BSA, ovalbumin, cytochrome C; both purified
(In general: SEC sorts molecules by how far they enter the pores of the column.)

Assay [1] has as its target human TMPK P81L mutant (human) (UniProt P23919).
Assay [2] concerns the target human TMPK D128N mutant (human) (UniProt P23919).
In assay [3] the target is human TMPK A99T mutant (human) (UniProt P23919).

B1: human TMPK P81L mutant (enzyme, UniProt P23919 1-212)
chain: MAARRGALIVLEGVDRAGKSTQSRKLVEALCAAGHRAELLRFPERSTEIGKLLSSYLQKKSDVEDHSVHLLFSANRWEQVLLIKEKLSQGVTLVVDRYAFSGVAFTGAKENFSLDWCKQPDVGLPKPDLVLFLQLQLADAAKRGAFGHERYENGAFQERALRCFHQLMKDTTLNWKMVDASKSIEAVHEDIRVLSEDAIRTATEKPLGELWK
B1: the binding result in assay [1] is “no binding (tested: 200 μg injected)”.

B2: human TMPK D128N mutant (enzyme, UniProt P23919 1-212)
chain: B1 chain with L81P, D128N
Turning to B2, the binding entry in assay [2] was “no binding (tested: 200 μg injected)”.

B3: human TMPK A99T mutant (enzyme, UniProt P23919 1-212)
chain: B1 chain with L81P, A99T
In the case of B3, the binding result in assay [3] was “no binding (tested: 200 μg injected)”.
